PMC6098020

Target: GST-fused WT ∆19 ARL13B (human)
Assay: pull-down; GST-fusion proteins immobilised on glutathione Sepharose, purified His-RAB11FIP5 in solution; 25 mM Tris-HCl pH 7.4, 150 mM NaCl, 1 mM EDTA, 10% glycerol, 0.5% Triton X-100; 4 °C, 4 h; western blot; both purified

binding: binds
B1: 6× his-tagged RAB11FIP5 (protein, UniProt Q9BXF6 1-653)
chain: MALVRGAEPAAGPSRWLPTHVQVTVLRARGLRGKSSGAGSTSDAYTVIQVGREKYSTSVVEKTHGCPEWREECSFELPPGALDGLLRAQEADAGPAPWAASSAAACELVLTTMHRSLIGVDKFLGQATVALDEVFGAGRAQHTQWYKLHSKPGKKEKERGEIEVTIQFTRNNLSASMFDLSMKDKPRSPFSKIRDKMKGKKKYDLESASAILPSSAIEDPDLGSLGKMGKAKGFFLRNKLRKSSLTQSNTSLGSDSTLSSASGSLAYQGPGAELLTRSPSRSSWLSTEGGRDSAQSPKLFTHKRTYSDEANQMRVAPPRALLDLQGHLDAASRSSLCVNGSHIYNEEPQGPVRHRSSISGSLPSSGSLQAVSSRFSEEGPRSTDDTWPRGSRSNSSSEAVLGQEELSAQAKVLAPGASHPGEEEGARLPEGKPVQVATPIVASSEAVAEKEGARKEERKPRMGLFHHHHQGLSRSELGRRSSLGEKGGPILGASPHHSSSGEEKAKSSWFGLREAKDPTQKPSPHPVKPLSAAPVEGSPDRKQSRSSLSIALSSGLEKLKTVTSGSIQPVTQAPQAGQMVDTKRLKDSAVLDQSAKYYHLTHDELISLLLQRERELSQRDEHVQELESYIDRLLVRIMETSPTLLQIPPGPPK

Results are given in words; binding and its absence hold for the method and conditions named. A result given as binding can be weak or reduced; the word gives no strength. Tags and fused reporters may be left off the sequences shown.
